{"source": "paper PMC10378191", "binders": {"B1": {"name": "Phospholipid scramblase-1 (PLSCR1), expressed from a plasmid in HEK293 cells (protein, UniProt O15162 1-318)", "chain": "MDKQNSQMNASHPETNLPVGYPPQYPPTAFQGPPGYSGYPGPQVSYPPPPAGHSGPGPAGFPVPNQPVYNQPVYNQPVGAAGVPWMPAPQPPLNCPPGLEYLSQIDQILIHQQIELLEVLTGFETNNKYEIKNSFGQRVYFAAEDTDCCTRNCCGPSRPFTLRIIDNMGQEVITLERPLRCSSCCCPCCLQEIEIQAPPGVPIGYVIQTWHPCLPKFTIQNEKREDVLKISGPCVVCSCCGDVDFEIKSLDEQCVVGKISKHWTGILREAFTDADNFGIQFPLDLDVKMKAVMIGACFLIDFMFFESTGSQEQKSGVW"}, "B2": {"name": "Chemoattractant receptor-homologous molecule expressed on Th2 cells (CRTH2), expressed from a plasmid in HEK293 cells (receptor, UniProt Q9Y5Y4 1-395)", "chain": "MSANATLKPLCPILEQMSRLQSHSNTSIRYIDHAAVLLHGLASLLGLVENGVILFVVGCRMRQTVVTTWVLHLALSDLLASASLPFFTYFLAVGHSWELGTTFCKLHSSIFFLNMFASGFLLSAISLDRCLQVVRPVWAQNHRTVAAAHKVCLVLWALAVLNTVPYFVFRDTISRLDGRIMCYYNVLLLNPGPDRDATCNSRQVALAVSKFLLAFLVPLAIIASSHAAVSLRLQHRGRRRPGRFVRLVAAVVAAFALCWGPYHVFSLLEARAHANPGLRPLVWRGLPFVTSLAFFNSVANPVLYVLTCPDMLRKLRRSLRTVLESVLVDDSELGGAGSSRRRRTSSTARSASPLALCSRPEEPRGPARLLGWLLGSCAASPQTGPLNRALSSTSS"}, "B3": {"name": "Phospholipid scramblase-1 (Plscr1), endogenous in mouse lung (protein, UniProt Q9JJ00 1-328)", "chain": "MENHSKQTEAPHPGTYMPAGYPPPYPPAAFQGPSDHAAYPIPQAGYQGPPGPYPGPQPGYPVPPGGYAGGGPSGFPVQNQPAYNHPGGPGGTPWMPAPPPPLNCPPGLEYLAQIDQLLVHQQIELLEVLTGFETNNKYEIKNSLGQRVYFAVEDTDCCTRNCCGASRPFTLRILDNLGREVMTLERPLRCSSCCFPCCLQEIEIQAPPGVPVGYVTQTWHPCLPKFTLQNEKKQDVLKVVGPCVVCSCCSDIDFELKSLDEESVVGKISKQWSGFVREAFTDADNFGIQFPLDLDVKMKAVMLGACFLIDFMFFERTGNEEQRSGAWQ"}, "B4": {"name": "Chemoattractant receptor-homologous molecule expressed on Th2 cells (CRTH2), endogenous in mouse lung (receptor, UniProt Q9Z2J6 1-382)", "chain": "MANVTLKPLCPLLEEMVQLPNHSNSSLRYIDHVSVLLHGLASLLGLVENGLILFVVGCRMRQTVVTTWVLHLALSDLLAAASLPFFTYFLAVGHSWELGTTFCKLHSSVFFLNMFASGFLLSAISLDRCLQVVRPVWAQNHRTVAVAHRVCLMLWALAVLNTIPYFVFRDTIPRLDGRIMCYYNLLLWNPGPDRDTTCDYRQKALAVSKFLLAFMVPLAIIASSHVAVSLRLHHRGRQRTGRFVRLVAAIVVAFVLCWGPYHIFSLLEARAHSVTTLRQLASRGLPFVTSLAFFNSVVNPLLYVFTCPDMLYKLRRSLRAVLESVLVEDSDQSGGLRNRRRRASSTATPASTLLLADRIPQLRPTRLIGWMRRGSAEVPQRV"}}, "key": {"[1]": {"target": "T1, Chemoattractant receptor-homologous molecule expressed on Th2 cells (CRTH2), expressed from a plasmid in HEK293 cells (UniProt Q9Y5Y4)", "T1 sequence": "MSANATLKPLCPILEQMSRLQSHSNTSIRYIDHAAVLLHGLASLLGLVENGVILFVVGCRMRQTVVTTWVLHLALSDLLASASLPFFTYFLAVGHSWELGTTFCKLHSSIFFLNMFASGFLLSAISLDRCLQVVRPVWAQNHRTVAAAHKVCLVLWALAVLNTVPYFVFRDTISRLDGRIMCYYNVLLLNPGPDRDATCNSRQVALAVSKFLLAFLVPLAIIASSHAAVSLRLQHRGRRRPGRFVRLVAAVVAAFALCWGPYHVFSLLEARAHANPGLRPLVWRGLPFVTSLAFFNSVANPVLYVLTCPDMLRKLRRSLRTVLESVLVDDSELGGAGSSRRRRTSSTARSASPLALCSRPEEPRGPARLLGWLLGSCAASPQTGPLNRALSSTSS", "experiment": "co-IP; HEK293 cells transfected with CRTH2 and PLSCR1 plasmids; lysates immunoprecipitated with anti-CRTH2 and blotted with anti-PLSCR1, or the opposite; Catch and Release V2.0"}, "[2]": {"target": "T2, Phospholipid scramblase-1 (PLSCR1), expressed from a plasmid in HEK293 cells (UniProt O15162)", "T2 sequence": "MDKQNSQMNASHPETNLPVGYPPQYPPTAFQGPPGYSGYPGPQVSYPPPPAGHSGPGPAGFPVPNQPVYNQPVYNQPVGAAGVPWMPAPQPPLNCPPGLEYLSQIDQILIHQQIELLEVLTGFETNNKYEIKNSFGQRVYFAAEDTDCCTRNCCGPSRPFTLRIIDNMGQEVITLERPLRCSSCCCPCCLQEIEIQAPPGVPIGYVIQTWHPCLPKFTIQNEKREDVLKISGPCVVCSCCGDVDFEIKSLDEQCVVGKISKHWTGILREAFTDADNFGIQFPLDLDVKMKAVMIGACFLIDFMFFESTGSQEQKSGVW", "experiment": "co-IP; HEK293 cells transfected with CRTH2 and PLSCR1 plasmids; lysates immunoprecipitated with anti-CRTH2 and blotted with anti-PLSCR1, or the opposite; Catch and Release V2.0"}, "[3]": {"target": "T3, Chemoattractant receptor-homologous molecule expressed on Th2 cells (CRTH2), endogenous in mouse lung (mouse (endogenous in lung)) (UniProt Q9Z2J6)", "T3 sequence": "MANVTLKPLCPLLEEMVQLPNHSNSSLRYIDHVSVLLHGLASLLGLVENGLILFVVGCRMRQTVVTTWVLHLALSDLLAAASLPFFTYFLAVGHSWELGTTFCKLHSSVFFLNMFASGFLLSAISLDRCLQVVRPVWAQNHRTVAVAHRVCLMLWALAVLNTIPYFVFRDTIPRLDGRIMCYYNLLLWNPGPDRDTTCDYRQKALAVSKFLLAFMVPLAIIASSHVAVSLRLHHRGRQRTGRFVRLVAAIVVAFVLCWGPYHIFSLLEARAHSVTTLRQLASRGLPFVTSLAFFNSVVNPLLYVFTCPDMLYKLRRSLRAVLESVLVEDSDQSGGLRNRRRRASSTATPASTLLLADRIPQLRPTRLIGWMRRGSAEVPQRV", "experiment": "co-IP; mouse lung protein lysates (WT mice; also IL-13 Tg mice, where the interaction became weaker) immunoprecipitated with anti-CRTH2 and blotted with anti-PLSCR1, or the opposite; Catch and Release V2.0"}, "[4]": {"target": "T4, Phospholipid scramblase-1 (Plscr1), endogenous in mouse lung (mouse (endogenous in lung)) (UniProt Q9JJ00)", "T4 sequence": "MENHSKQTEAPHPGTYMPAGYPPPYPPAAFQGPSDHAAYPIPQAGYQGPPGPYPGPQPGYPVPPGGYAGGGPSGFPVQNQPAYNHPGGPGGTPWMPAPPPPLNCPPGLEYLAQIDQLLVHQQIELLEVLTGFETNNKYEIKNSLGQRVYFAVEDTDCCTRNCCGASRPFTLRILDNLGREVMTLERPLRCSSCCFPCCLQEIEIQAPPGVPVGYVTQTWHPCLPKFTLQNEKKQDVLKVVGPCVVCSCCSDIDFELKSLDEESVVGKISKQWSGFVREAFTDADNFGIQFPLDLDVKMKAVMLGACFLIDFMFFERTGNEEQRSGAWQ", "experiment": "co-IP; mouse lung protein lysates (WT mice; also IL-13 Tg mice, where the interaction became weaker) immunoprecipitated with anti-CRTH2 and blotted with anti-PLSCR1, or the opposite; Catch and Release V2.0"}}, "note": "No constants are given. Whether binding was seen depends on the method and setting. Binding seen in cells or lysates may run through a third protein. Some results given as binding are weak or reduced against the parent protein; the word gives no strength.", "data": [{"binder": "B1", "values": [{"measurement": "binding", "setting": "[1]", "value": "binds"}]}, {"binder": "B2", "values": [{"measurement": "binding", "setting": "[2]", "value": "binds"}]}, {"binder": "B3", "values": [{"measurement": "binding", "setting": "[3]", "value": "binds"}]}, {"binder": "B4", "values": [{"measurement": "binding", "setting": "[4]", "value": "binds"}]}]}
